Among the data in publication PMC10867860 are binding values, retold here.

Amino acid sequences for entries named in this document (tags omitted). A change or cut given only in a name is not applied to a line headed by its entry. Chains listed by the source or under a name are the forms on record and can include a tag or linker.
UAF1 (res. 9-677, C-terminal RQKST replaced by a 21-residue extension) (Q8TAF3, form named): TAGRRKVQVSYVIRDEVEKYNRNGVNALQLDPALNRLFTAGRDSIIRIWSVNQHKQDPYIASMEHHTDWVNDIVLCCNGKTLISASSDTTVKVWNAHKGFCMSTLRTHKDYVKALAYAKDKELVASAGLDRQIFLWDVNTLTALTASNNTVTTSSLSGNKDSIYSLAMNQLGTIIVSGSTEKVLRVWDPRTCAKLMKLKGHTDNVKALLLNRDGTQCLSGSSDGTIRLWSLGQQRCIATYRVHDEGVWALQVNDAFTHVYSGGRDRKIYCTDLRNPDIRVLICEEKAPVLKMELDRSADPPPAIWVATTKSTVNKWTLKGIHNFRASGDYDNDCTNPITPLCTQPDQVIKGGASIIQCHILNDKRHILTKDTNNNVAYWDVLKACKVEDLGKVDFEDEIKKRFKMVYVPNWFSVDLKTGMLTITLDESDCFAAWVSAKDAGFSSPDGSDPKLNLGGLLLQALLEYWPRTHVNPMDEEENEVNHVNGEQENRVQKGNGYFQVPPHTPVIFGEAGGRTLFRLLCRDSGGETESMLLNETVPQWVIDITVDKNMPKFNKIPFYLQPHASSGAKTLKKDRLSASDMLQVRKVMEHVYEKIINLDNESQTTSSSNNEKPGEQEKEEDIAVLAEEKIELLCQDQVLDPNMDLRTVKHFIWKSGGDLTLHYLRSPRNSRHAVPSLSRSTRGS

These are yes or no findings as the source states them, for the method shown. Some entries that bind do so weakly or less than the wild type.

The assay has as its target UAF1 (res. 9-677, C-terminal RQKST replaced by a 21-residue extension) (UniProt Q8TAF3). Nature of the assay: co-purification after co-expression; USP1 (N-terminal His-tag) and UAF1 (N-terminal strep-tag) coexpressed in Sf9 cells and copurified according to Dharadhar et al (2021).

B1: USP1 (res. 21-785, G670A + G671A) (enzyme, UniProt O94782 21-785)
chain: NRLSLKFFQKKETKRALDFTDSQENEEKASEYRASEIDQVVPAAQSSPINCEKRENLLPFVGLNNLGNTCYLNSILQVLYFCPGFKSGVKHLFNIISRKKEALKDEANQKDKGNCKEDSLASYELICSLQSLIISVEQLQASFLLNPEKYTDELATQPRRLLNTLRELNPMYEGYLQHDAQEVLQCILGNIQETCQLLKKEEVKNVAELPTKVEEIPHPKEEMNGINSIEMDSMRHSEDFKEKLPKGNGKRKSDTEFGNMKKKVKLSKEHQSLEENQRQTRSKRKATSDTLESPPKIIPKYISENESPRPSQKKSRVKINWLKSATKQPSILSKFCSLGKITTNQGVKGQSKENECDPEEDLGKCESDNTTNGCGLESPGNTVTPVNVNEVKPINKGEEQIGFELVEKLFQGQLVLRTRCLECESLTERREDFQDISVPVQEDELSKVEESSEISPEPKTEMKTLRWAISQFASVERIVGEDKYFCENCHHYTEAERSLLFDKMPEVITIHLKCFAASGLEFDCYGGGLSKINTPLLTPLKLSLEEWSTKPTNDSYGLFAVVMHSGITISSGHYTASVKVTDLNSLELDKGNFVVDQMCEIGKPEPLNEEEARGVVENYNDEEVSIRVGGNTQPSKVLNKKNVEAIGLLAAQKSKADYELYNKASNPDKVASTAFAENRNSETSDTTGTHESDRNKESSDQTGINISGFENKISYVVQSLKEYEGKWLLFDDSEVKVTEEKDFLNSLSPSTSPTSTPYLLFYKKLERPLSNLEPAVSRHAVPSLSRSTRGS
Turning to B1, the binding entry was “binds”.

B2: USP1^D752N (res. 21-785, G670A + G671A) (enzyme, UniProt O94782 21-785)
chain: NRLSLKFFQKKETKRALDFTDSQENEEKASEYRASEIDQVVPAAQSSPINCEKRENLLPFVGLNNLGNTCYLNSILQVLYFCPGFKSGVKHLFNIISRKKEALKDEANQKDKGNCKEDSLASYELICSLQSLIISVEQLQASFLLNPEKYTDELATQPRRLLNTLRELNPMYEGYLQHDAQEVLQCILGNIQETCQLLKKEEVKNVAELPTKVEEIPHPKEEMNGINSIEMDSMRHSEDFKEKLPKGNGKRKSDTEFGNMKKKVKLSKEHQSLEENQRQTRSKRKATSDTLESPPKIIPKYISENESPRPSQKKSRVKINWLKSATKQPSILSKFCSLGKITTNQGVKGQSKENECDPEEDLGKCESDNTTNGCGLESPGNTVTPVNVNEVKPINKGEEQIGFELVEKLFQGQLVLRTRCLECESLTERREDFQDISVPVQEDELSKVEESSEISPEPKTEMKTLRWAISQFASVERIVGEDKYFCENCHHYTEAERSLLFDKMPEVITIHLKCFAASGLEFDCYGGGLSKINTPLLTPLKLSLEEWSTKPTNDSYGLFAVVMHSGITISSGHYTASVKVTDLNSLELDKGNFVVDQMCEIGKPEPLNEEEARGVVENYNDEEVSIRVGGNTQPSKVLNKKNVEAIGLLAAQKSKADYELYNKASNPDKVASTAFAENRNSETSDTTGTHESDRNKESSDQTGINISGFENKISYVVQSLKEYEGKWLLFDNSEVKVTEEKDFLNSLSPSTSPTSTPYLLFYKKLERPLSNLEPAVSRHAVPSLSRSTRGS
In the case of B2, the binding entry is “binds”.

B3: USP1^D751N (res. 21-785, G670A + G671A) (enzyme, UniProt O94782 21-785)
chain: NRLSLKFFQKKETKRALDFTDSQENEEKASEYRASEIDQVVPAAQSSPINCEKRENLLPFVGLNNLGNTCYLNSILQVLYFCPGFKSGVKHLFNIISRKKEALKDEANQKDKGNCKEDSLASYELICSLQSLIISVEQLQASFLLNPEKYTDELATQPRRLLNTLRELNPMYEGYLQHDAQEVLQCILGNIQETCQLLKKEEVKNVAELPTKVEEIPHPKEEMNGINSIEMDSMRHSEDFKEKLPKGNGKRKSDTEFGNMKKKVKLSKEHQSLEENQRQTRSKRKATSDTLESPPKIIPKYISENESPRPSQKKSRVKINWLKSATKQPSILSKFCSLGKITTNQGVKGQSKENECDPEEDLGKCESDNTTNGCGLESPGNTVTPVNVNEVKPINKGEEQIGFELVEKLFQGQLVLRTRCLECESLTERREDFQDISVPVQEDELSKVEESSEISPEPKTEMKTLRWAISQFASVERIVGEDKYFCENCHHYTEAERSLLFDKMPEVITIHLKCFAASGLEFDCYGGGLSKINTPLLTPLKLSLEEWSTKPTNDSYGLFAVVMHSGITISSGHYTASVKVTDLNSLELDKGNFVVDQMCEIGKPEPLNEEEARGVVENYNDEEVSIRVGGNTQPSKVLNKKNVEAIGLLAAQKSKADYELYNKASNPDKVASTAFAENRNSETSDTTGTHESDRNKESSDQTGINISGFENKISYVVQSLKEYEGKWLLFNDSEVKVTEEKDFLNSLSPSTSPTSTPYLLFYKKLERPLSNLEPAVSRHAVPSLSRSTRGS
As to B3, the binding result is “binds”.

B4: USP1^D752A (res. 21-785, G670A + G671A) (enzyme, UniProt O94782 21-785)
chain: NRLSLKFFQKKETKRALDFTDSQENEEKASEYRASEIDQVVPAAQSSPINCEKRENLLPFVGLNNLGNTCYLNSILQVLYFCPGFKSGVKHLFNIISRKKEALKDEANQKDKGNCKEDSLASYELICSLQSLIISVEQLQASFLLNPEKYTDELATQPRRLLNTLRELNPMYEGYLQHDAQEVLQCILGNIQETCQLLKKEEVKNVAELPTKVEEIPHPKEEMNGINSIEMDSMRHSEDFKEKLPKGNGKRKSDTEFGNMKKKVKLSKEHQSLEENQRQTRSKRKATSDTLESPPKIIPKYISENESPRPSQKKSRVKINWLKSATKQPSILSKFCSLGKITTNQGVKGQSKENECDPEEDLGKCESDNTTNGCGLESPGNTVTPVNVNEVKPINKGEEQIGFELVEKLFQGQLVLRTRCLECESLTERREDFQDISVPVQEDELSKVEESSEISPEPKTEMKTLRWAISQFASVERIVGEDKYFCENCHHYTEAERSLLFDKMPEVITIHLKCFAASGLEFDCYGGGLSKINTPLLTPLKLSLEEWSTKPTNDSYGLFAVVMHSGITISSGHYTASVKVTDLNSLELDKGNFVVDQMCEIGKPEPLNEEEARGVVENYNDEEVSIRVGGNTQPSKVLNKKNVEAIGLLAAQKSKADYELYNKASNPDKVASTAFAENRNSETSDTTGTHESDRNKESSDQTGINISGFENKISYVVQSLKEYEGKWLLFDASEVKVTEEKDFLNSLSPSTSPTSTPYLLFYKKLERPLSNLEPAVSRHAVPSLSRSTRGS
Regarding B4, the binding entry is recorded as “binds”.

B5: USP1^D751A (res. 21-785, G670A + G671A) (enzyme, UniProt O94782 21-785)
chain: NRLSLKFFQKKETKRALDFTDSQENEEKASEYRASEIDQVVPAAQSSPINCEKRENLLPFVGLNNLGNTCYLNSILQVLYFCPGFKSGVKHLFNIISRKKEALKDEANQKDKGNCKEDSLASYELICSLQSLIISVEQLQASFLLNPEKYTDELATQPRRLLNTLRELNPMYEGYLQHDAQEVLQCILGNIQETCQLLKKEEVKNVAELPTKVEEIPHPKEEMNGINSIEMDSMRHSEDFKEKLPKGNGKRKSDTEFGNMKKKVKLSKEHQSLEENQRQTRSKRKATSDTLESPPKIIPKYISENESPRPSQKKSRVKINWLKSATKQPSILSKFCSLGKITTNQGVKGQSKENECDPEEDLGKCESDNTTNGCGLESPGNTVTPVNVNEVKPINKGEEQIGFELVEKLFQGQLVLRTRCLECESLTERREDFQDISVPVQEDELSKVEESSEISPEPKTEMKTLRWAISQFASVERIVGEDKYFCENCHHYTEAERSLLFDKMPEVITIHLKCFAASGLEFDCYGGGLSKINTPLLTPLKLSLEEWSTKPTNDSYGLFAVVMHSGITISSGHYTASVKVTDLNSLELDKGNFVVDQMCEIGKPEPLNEEEARGVVENYNDEEVSIRVGGNTQPSKVLNKKNVEAIGLLAAQKSKADYELYNKASNPDKVASTAFAENRNSETSDTTGTHESDRNKESSDQTGINISGFENKISYVVQSLKEYEGKWLLFADSEVKVTEEKDFLNSLSPSTSPTSTPYLLFYKKLERPLSNLEPAVSRHAVPSLSRSTRGS
Consider B5, for which the binding result is reported as “binds”.
